The values below come from publication PMC7819943, “Rice protein-binding microarrays: a tool to detect cis-acting elements near promoter regions in rice”.

The other results are listed elsewhere or left out.

This test has as its target T1, OsSMF1 (Oryza sativa, UniProt Q6ZLB0 1-436).
T1 sequence: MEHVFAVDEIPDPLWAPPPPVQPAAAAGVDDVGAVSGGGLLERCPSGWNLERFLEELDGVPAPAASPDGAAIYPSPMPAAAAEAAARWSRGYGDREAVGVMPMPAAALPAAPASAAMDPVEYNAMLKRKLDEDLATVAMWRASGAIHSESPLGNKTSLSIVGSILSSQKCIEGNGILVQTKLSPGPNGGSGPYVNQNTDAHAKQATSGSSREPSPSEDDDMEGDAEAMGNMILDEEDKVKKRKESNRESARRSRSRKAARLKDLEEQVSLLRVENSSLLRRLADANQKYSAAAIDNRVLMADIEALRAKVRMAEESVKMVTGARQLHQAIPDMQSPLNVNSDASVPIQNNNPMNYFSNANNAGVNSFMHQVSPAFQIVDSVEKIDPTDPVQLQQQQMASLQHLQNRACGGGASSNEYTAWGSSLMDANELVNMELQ
Description: protein-binding microarray (RPBM); PBS, 2% BSA, 51.3 ng/ul salmon testes DNA, 50 uM zinc acetate, 200 nM TF, 25 C, 1 h; high values mean tight binding. Particulars: protein: recombinant; tags: N-terminal polyhistidine and DsRed monomer fusion (pET32a); chain copies: 2; label: CyDye5-dUTP incorporated in the synthesized complementary strand; 3' TTTTT single-stranded linker to array surface; dsDNA, one strand shown. Summed up: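 Polyhistidine-tagged DsRed fusions of transcription factors, joined at the N-terminus, were expressed in E. coli BL21-CodonPlus and isolated on Ni–NTA. They were incubated at 200 nM for 1 h at 25 °C on a custom Agilent array, double-stranded and BSA-blocked, in PBS with 2% BSA, salmon testes DNA and 50 µM zinc acetate. The binding signal is per-feature fluorescence intensity (arbitrary units) read on an Axon 4000B scanner after washing.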
For “GTTGTGTTGTGATGGATGACTTAATGGAAGTACTTCCGCACGGAGTCACCTAGTGCAG”, the binding signal was 4080 fluorescence intensity (a.u.). With “CCCGGCCTCCACGTCCCCATATGCTGCGTCGGAGACTGTTCGGAGTCACCTAGTGCAG”, the binding signal was 11300 fluorescence intensity (a.u.). The same measure for “TTTAATACTCCATACATGTGTCCAATCATTCGATGTGATACGGAGTCACCTAGTGCAG”: 3220 fluorescence intensity (a.u.); for “AGACGTCCTGTAGCAGATTTTACCTCTTCTATAATGGTTGCGGAGTCACCTAGTGCAG”: 9870 fluorescence intensity (a.u.); for “AGAGAGAGAGAGAGAGAGATCGTCTTCAATCGCGTGGCACCGGAGTCACCTAGTGCAG”: 3960 fluorescence intensity (a.u.). In the case of “AGTAGCATTCGACGCCGCCGCTCGTCATCCGAAGCCGAGCCGGAGTCACCTAGTGCAG”, the binding signal was 3710 fluorescence intensity (a.u.). Then “GCCCGTCCTCTTCTGCAAGATCTGCATGGATGACGTGCCGCGGAGTCACCTAGTGCAG”, with 6180 fluorescence intensity (a.u.); and “CTGCCGCCTCCCCTCCTCCTGGCGCCACGCAAGCGAGCTCCGGAGTCACCTAGTGCAG”, with 11500 fluorescence intensity (a.u.). Then “TAAAATTAGGATGACAGAGCATCCTAGGCAATAATTAAGCCGGAGTCACCTAGTGCAG”, with 3670 fluorescence intensity (a.u.); and “CTTCCAAGCACTCTAGCTTACAGCAGTACACATCATGTACCGGAGTCACCTAGTGCAG”, with 6130 fluorescence intensity (a.u.); and “ACCCAGCTCCCCTCCTATTTTAGGTGGAGCTGACACAGCCCGGAGTCACCTAGTGCAG”, with 5940 fluorescence intensity (a.u.). Then “TCCCTCCACCGCAGGTCCGCAGCCCAATCCAATCAGCAGACGGAGTCACCTAGTGCAG”, with 4010 fluorescence intensity (a.u.); and “ACCGGTCAGTCGGCCACCGCCACCTTTGCGCCATACTGCCCGGAGTCACCTAGTGCAG”, with 4050 fluorescence intensity (a.u.); and “GGGAGTATCTTTGTTCTTGATGCTGACATGGAATTATCTTCGGAGTCACCTAGTGCAG”, with 4030 fluorescence intensity (a.u.). Consider “TAAGATATACGACGTGTTAGGTGTATCAATCATATGCCCTCGGAGTCACCTAGTGCAG”, for which the binding signal was 3410 fluorescence intensity (a.u.). Then “TACTCCTGAATATTACTGAATATTATGGGACAATTCTGTGCGGAGTCACCTAGTGCAG”, with 3280 fluorescence intensity (a.u.); and “TGAGGAGGCAGGACGCACGTTCGCGGGCATCCTGGTTGGGCGGAGTCACCTAGTGCAG”, with 3650 fluorescence intensity (a.u.).

Take “CTCCGCCGCCAATTCGCTCGGTCCGGCGGTTCGCTGATCCCGGAGTCACCTAGTGCAG”: the binding signal was 33200 fluorescence intensity (a.u.). Turning to “ACATCATCACGCAGGACGCAGCCATGGCATTCGCGGATCACGGAGTCACCTAGTGCAG”, the binding signal is 3370 fluorescence intensity (a.u.). Consider “CTGAATCTCACCAGAGCAACTCCTATTGGCAGTGTCGACTCGGAGTCACCTAGTGCAG”, for which the binding signal was 9420 fluorescence intensity (a.u.). The same measure for “ACTAAGCGCATTGATTCCCATTATATACTTCCTTTCCTAACGGAGTCACCTAGTGCAG”: 3570 fluorescence intensity (a.u.); for “GTTTGGCAACAATTGGGGAGGGGCATAATATTAGCTCTGGCGGAGTCACCTAGTGCAG”: 3500 fluorescence intensity (a.u.); for “GTGTGCGGCGGCAAGGATAGCTGAGGTGGCAAAGCTCGTGCGGAGTCACCTAGTGCAG”: 9890 fluorescence intensity (a.u.). The same measure for “ATAACTCTCTTTCTGGACCCATCCCTGACCTCCAACTCCCCGGAGTCACCTAGTGCAG”: 3250 fluorescence intensity (a.u.).

On to “ACTTATCCGACGTGGACTCCACGTACGACTTGGACTCCTCCGGAGTCACCTAGTGCAG”, for which the binding signal is 20100 fluorescence intensity (a.u.). Consider “CGGTTGTTAACCTGGCTAATAGTGACGGGTCAATCGCACACGGAGTCACCTAGTGCAG”, for which the binding signal was 3490 fluorescence intensity (a.u.).

“GTGTGAATTTGATTTGCGTGGAGGGTGACACCGTGTGGTACGGAGTCACCTAGTGCAG”: the binding signal is 3700 fluorescence intensity (a.u.). On to “GCTGTTTGACAAGCTCCCCTCGCCGCCAGGAAGGCTCCCTCGGAGTCACCTAGTGCAG”, for which the binding signal was 20000 fluorescence intensity (a.u.).

Consider “CCGCGCCTTCTTCCTCCTCAGCTTTGCCGAGACCTCGTTGCGGAGTCACCTAGTGCAG”, for which the binding signal was 35400 fluorescence intensity (a.u.). Take “CAGGGTAAATACATATACGTGTTACATATGTGAGTCATGGCGGAGTCACCTAGTGCAG”: the binding signal is 6200 fluorescence intensity (a.u.). Then “GCTAGGCGGCGGTGCACGAGAAGGGAGAGGTAGTGGCGCGCGGAGTCACCTAGTGCAG”, with 25400 fluorescence intensity (a.u.); and “GCGTGCCTGCGTGTGTATTACCGTTGTAGGGTTAGCACCGCGGAGTCACCTAGTGCAG”, with 3520 fluorescence intensity (a.u.). Regarding “AGTAGTACAACTATTATATTCCATCTGTCATATTTGTCATCGGAGTCACCTAGTGCAG”, the binding signal is 3680 fluorescence intensity (a.u.).

Consider “CGTGTGCCTGCGCGCTTGCTGTCACCGTGTCAGCCTGTAGCGGAGTCACCTAGTGCAG”, for which the binding signal is 5160 fluorescence intensity (a.u.).

On to “TGCAGTACACGTCTACTGGTTTACATGTAGTTACACGTCTCGGAGTCACCTAGTGCAG”, for which the binding signal was 6060 fluorescence intensity (a.u.). On to “GAGGGGTGGCAGTTGTCGGAGCTAGGGGAGGGAGAGGCGGCGGAGTCACCTAGTGCAG”, for which the binding signal is 5510 fluorescence intensity (a.u.). Then “GAGCTATTTGGATTCGTTTTATCGTACTGTTGGGTGTCATCGGAGTCACCTAGTGCAG”, with 3230 fluorescence intensity (a.u.). The same measure for “CAAGAGAAAATAGCCAAAATAATAGCAGTAAGAACACAATCGGAGTCACCTAGTGCAG”: 15400 fluorescence intensity (a.u.); for “ACAAACCCACTATGTTACTATATGAATCATACCTTGTTCGCGGAGTCACCTAGTGCAG”: 3300 fluorescence intensity (a.u.).

As for “ACTTCAGAGCGTGCTCCAGCATGACGATGGCACGGCGGTGCGGAGTCACCTAGTGCAG”, the binding signal was 3830 fluorescence intensity (a.u.).

Consider “TTGTACAGCAGCAGTAACCCTGACGCAAGAATTTCTTTTGCGGAGTCACCTAGTGCAG”, for which the binding signal was 3810 fluorescence intensity (a.u.). The same measure for “CATTGATATAAACTGACAACATGCTGCTGCTGAGAATATGCGGAGTCACCTAGTGCAG”: 3150 fluorescence intensity (a.u.).
